Measured values reported in paper PMC6191443.
Results are given in words; binding and its absence hold for the method and conditions named. Some binding calls cover weakened binding; strength is not graded here.

Biological target: T1, TRADD overexpressed in HEK293T cells, Q15628
T1 chain: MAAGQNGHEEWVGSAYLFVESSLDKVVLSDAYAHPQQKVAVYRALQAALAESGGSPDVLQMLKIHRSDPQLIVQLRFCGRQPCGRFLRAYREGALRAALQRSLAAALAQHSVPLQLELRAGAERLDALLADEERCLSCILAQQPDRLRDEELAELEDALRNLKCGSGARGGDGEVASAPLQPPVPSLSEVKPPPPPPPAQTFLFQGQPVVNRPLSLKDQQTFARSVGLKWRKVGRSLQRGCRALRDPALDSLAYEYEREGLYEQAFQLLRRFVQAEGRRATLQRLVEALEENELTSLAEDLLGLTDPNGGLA
Assay: non-reducing SDS-PAGE and Western blot
Details: remark: other sources report otherwise

B1: TRADD overexpressed in HEK293T cells, Q15628 1-312 (protein)
chain: MAAGQNGHEEWVGSAYLFVESSLDKVVLSDAYAHPQQKVAVYRALQAALAESGGSPDVLQMLKIHRSDPQLIVQLRFCGRQPCGRFLRAYREGALRAALQRSLAAALAQHSVPLQLELRAGAERLDALLADEERCLSCILAQQPDRLRDEELAELEDALRNLKCGSGARGGDGEVASAPLQPPVPSLSEVKPPPPPPPAQTFLFQGQPVVNRPLSLKDQQTFARSVGLKWRKVGRSLQRGCRALRDPALDSLAYEYEREGLYEQAFQLLRRFVQAEGRRATLQRLVEALEENELTSLAEDLLGLTDPNGGLA
With B1 the binding was “binds”.
